PubChem BioAssay AID1259308 – NCATS – 2017
Aim: 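Candidate targets for better recombinant protein yield in mammalian cells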 (primary screen). Cell system: human HEK293 embryonic kidney cells stably expressing firefly luciferase (HEK-CMV-Luc2-Hygro). Knock-down reagent: single siRNA against human genes, 0.8 pmol siRNA per well. Duration: 72 h. Read-out: 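Luciferase light (ONE-Glo) measured on one replicate plate set and viability (CellTiter-Glo) on the other, scaled to a negative control siRNA, with robust z-scores and luciferase per cell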. Reading the numbers: total luciferase, z-score and total luciferase, % of control: higher = more reporter protein produced; luciferase per cell, z-score: higher = more reporter output per viable cell; viable cells, % of control: higher = more viable cells. Hit rule: 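Active when the median/MAD z-score for overall luciferase is greater than 3; a gene was taken forward for validation with new siRNAs if at least two of its three siRNAs passed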. Calls: active = raised luciferase; inactive = no rise.
The whole screen tested about 59,000 reagents; this is an unselected part. About 1,510 of them (2.6%) were called active. 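Calls use total luciferase alone and ignore viability, so some active siRNAs may act by altering cell number.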 Reagents against one gene are numbered here.

no.	gene symbol	siRNA no.	total luciferase, z-score	total luciferase, % of control	luciferase per cell, z-score	viable cells, % of control	outcome
1	DGKZ	1	0.262	87.1	-0.346	107	inactive
2	DGKZ	2	-0.389	74.2	-0.656	98.5	inactive
3	DGKZ	3	1.2	106	2.18	66.6	inactive
4	NUPR1	1	-0.307	75.8	-0.244	90.3	inactive
5	NUPR1	2	-0.066	80.6	-0.378	99.5	inactive
6	NUPR1	3	-0.898	64	-1.21	98.4	inactive
7	C15orf32	1	0.00364	82	-0.38	101	inactive
8	C15orf32	2	1.72	116	1.45	88.6	inactive
9	C15orf32	3	0.896	99.7	0.371	101	inactive
10	BTNL9	1	0.038	82.6	-0.062	93.9	inactive
11	BTNL9	2	-0.0391	81.1	0.686	75.6	inactive
12	BTNL9	3	-0.206	77.8	0.257	81.2	inactive
13	RHOG	1	-0.104	79.8	-0.406	99.2	inactive
14	RHOG	2	-0.755	66.9	-0.493	85.1	inactive
15	RHOG	3	-0.731	67.4	-0.688	90.2	inactive
16	DOCK6	1	0.564	93.1	0.732	85.8	inactive
17	DOCK6	2	-0.618	69.6	0.177	74.2	inactive
18	DOCK6	3	0.265	87.2	0.727	80.4	inactive
19	TNFAIP8	1	-0.195	78	-0.84	109	inactive
20	TNFAIP8	2	-0.123	79.4	-0.662	106	inactive
21	TNFAIP8	3	0.347	88.8	0.0191	98.7	inactive
22	PPP4R4	1	1.3	108	1.36	84.2	inactive
23	PPP4R4	2	1.29	107	0.547	104	inactive
24	PPP4R4	3	-1.72	47.7	-1.08	70.9	inactive
25	FAM50B	1	-0.986	62.3	-0.783	85.5	inactive
26	FAM50B	2	-1.19	58.1	-1.71	102	inactive
27	FAM50B	3	-0.461	72.7	-1.12	109	inactive
28	CADPS	1	-0.196	78	0.255	81.5	inactive
29	CADPS	2	0.519	92.2	0.791	83.7	inactive
30	CADPS	3	-1.3	56	-0.773	76.7	inactive
31	FRMD5	1	0.0405	82.7	-0.118	95.3	inactive
32	FRMD5	2	-0.402	73.9	-0.62	97.2	inactive
33	FRMD5	3	0.251	86.9	0.0864	94.9	inactive
34	CYC1	1	-2.09	40.3	-2.51	87.4	inactive
35	CYC1	2	-2.35	35.1	-1.12	52.6	inactive
36	CYC1	3	-0.416	73.6	-0.911	105	inactive
37	LILRB4	1	-0.369	74.5	0.126	80.6	inactive
38	LILRB4	2	-0.36	74.7	0.0853	81.7	inactive
39	LILRB4	3	1.29	108	1.92	72.5	inactive

Quoted from the listing (4 entries):
no.	gene symbol	siRNA no.	total luciferase, z-score	total luciferase, % of control	luciferase per cell, z-score	viable cells, % of control	outcome
27	FAM50B	3	-0.461	72.7	-1.12	109	inactive
28	CADPS	1	-0.196	78	0.255	81.5	inactive
29	CADPS	2	0.519	92.2	0.791	83.7	inactive
30	CADPS	3	-1.3	56	-0.773	76.7	inactive
